Experimental data from PMC6014458.
No constants are given. Whether binding was seen depends on the method and setting. In cells and extracts the contact can be indirect. Some results given as binding are weak or reduced against the parent protein; the word gives no strength. Tags and fused reporters may be left off the sequences shown.

Amino acid sequences for entries named in this document (tags omitted).
UniProt Q9Y2J0: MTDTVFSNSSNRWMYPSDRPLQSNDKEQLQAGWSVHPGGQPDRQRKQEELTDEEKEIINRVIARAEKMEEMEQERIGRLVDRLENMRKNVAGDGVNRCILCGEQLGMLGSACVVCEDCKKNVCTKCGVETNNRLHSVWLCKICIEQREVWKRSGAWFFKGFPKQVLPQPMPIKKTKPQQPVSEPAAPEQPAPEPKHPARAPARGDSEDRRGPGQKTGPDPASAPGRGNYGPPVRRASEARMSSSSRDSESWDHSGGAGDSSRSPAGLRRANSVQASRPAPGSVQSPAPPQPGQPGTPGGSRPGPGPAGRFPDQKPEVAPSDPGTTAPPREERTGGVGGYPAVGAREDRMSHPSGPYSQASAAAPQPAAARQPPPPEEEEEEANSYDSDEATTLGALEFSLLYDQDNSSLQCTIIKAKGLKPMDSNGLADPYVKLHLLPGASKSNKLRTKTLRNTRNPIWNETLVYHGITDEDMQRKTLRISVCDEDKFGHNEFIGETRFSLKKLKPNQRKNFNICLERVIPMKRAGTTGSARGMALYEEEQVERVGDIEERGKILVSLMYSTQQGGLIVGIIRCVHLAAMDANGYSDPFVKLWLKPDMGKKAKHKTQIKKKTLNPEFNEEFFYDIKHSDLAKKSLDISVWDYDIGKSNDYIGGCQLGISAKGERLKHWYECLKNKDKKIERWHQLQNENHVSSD

Target: T1, GST-14-3-3 eta fusion protein (UniProt Q04917)
T1 sequence: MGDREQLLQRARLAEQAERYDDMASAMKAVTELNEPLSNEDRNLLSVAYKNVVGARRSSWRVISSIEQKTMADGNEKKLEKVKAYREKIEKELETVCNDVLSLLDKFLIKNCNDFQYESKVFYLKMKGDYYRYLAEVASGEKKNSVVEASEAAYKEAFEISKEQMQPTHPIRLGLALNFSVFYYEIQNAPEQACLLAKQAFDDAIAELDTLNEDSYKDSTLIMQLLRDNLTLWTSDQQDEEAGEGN
Assay: pull-down; GST or GST-14-3-3 eta fusion protein purified on Glutathione 4B beads, incubated ~1 hr with solubilized lysates of HEK cells transiently transfected with rabphilin 3a constructs; after washing, bound rabphilin 3a eluted and detected by immunoblotting with anti-rabphilin 3a antibody; only the target purified

- binding: binds
Substance: rabphilin 3a WT (from UniProt Q9Y2J0 1-694)
